Measurements as given in patent US20250145665A1, “MACROCYCLIC PEPTIDES USEFUL AS MODULATORS OF TNF ALPHA” (Bristol-Myers Squibb Company, priority 2023, published 2025).
Some of these results come from one statement about several compounds together. Positions of bridges follow the written chain, without caps; N, C: chain ends. Non-standard residues stand in square brackets, D forms with d. Residues, ends and D or L forms follow the SMILES beside them. ξ: configuration not given here. Bip = N[C@@H](Cc1ccc(-c2ccccc2)cc1)C(=O)O; hhPhe = N[C@@H](CCCc1ccccc1)C(=O)O; h4Pal = N[C@@H](CCc1ccncc1)C(=O)O; 4Pal = N[C@@H](Cc1ccncc1)C(=O)O; ξIle = CC[C@H](C)C(N)C(=O)O; Orn = NCCC[C@H](N)C(=O)O; Sar = CNCC(=O)O

Amino acid sequences for entries named in this document (tags omitted). Residues count along the entry.
UniProt P01375, 77-233 limits assumed: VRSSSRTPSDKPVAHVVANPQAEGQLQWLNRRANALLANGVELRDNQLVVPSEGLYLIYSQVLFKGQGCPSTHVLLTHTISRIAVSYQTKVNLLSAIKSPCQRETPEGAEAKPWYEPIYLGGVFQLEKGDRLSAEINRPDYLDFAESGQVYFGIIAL

Each molecule was assayed against TNFα (Homo sapiens, UniProt P01375) (assay: TNF-Induced HEK-Blue Assay). Details: summary statement for all examples; read-out: IC50 values measured in the TNF induced HEK-Blue assay.
Type: cell-based

IC50, ≤ 25 µM:
CC(C)C[C@@H]1NC(=O)[C@H](CCCNC(=N)N)NC(=O)[C@H](C(C)C)NC(=O)[C@@H]2CCCN2C(=O)[C@H](C(C)C)NC(=O)[C@H](CCCNC(=N)N)NC(=O)[C@H](CC(=O)O)NC(=O)[C@@H]2CCCN2C(=O)CN(C)C(=O)[C@H](Cc2ccc(-c3ccccc3)cc2)NC(=O)[C@H](Cc2ccc(-c3ccccc3)cc2)NC(=O)[C@H](Cc2ccccc2)NC(=O)CSC[C@@H](C(=O)NCC(N)=O)NC1=O [Example 1] ({CH2CO}-F[Bip][Bip][Sar]PDRVPVRLCG-NH2; thioether N-13), CC(C)C[C@@H]1NC(=O)[C@H](CCCN)NC(=O)[C@H](C(C)C)NC(=O)[C@@H]2CCCN2C(=O)[C@H](C(C)C)NC(=O)[C@H](CCCNC(=N)N)NC(=O)[C@H](CC(=O)O)NC(=O)[C@@H]2CCCN2C(=O)CN(C)C(=O)[C@H](Cc2ccc(-c3ccccc3)cc2)NC(=O)[C@H](Cc2ccc(-c3ccccc3)cc2)NC(=O)[C@H](Cc2ccccc2)NC(=O)CSC[C@@H](C(=O)NCC(N)=O)NC1=O [Example 2] ({CH2CO}-F[Bip][Bip][Sar]PDRVPV[Orn]LCG-NH2; thioether N-13), CC(C)C[C@@H]1NC(=O)[C@H](CCCCN)NC(=O)[C@H](C(C)C)NC(=O)[C@@H]2CCCN2C(=O)[C@H](C(C)C)NC(=O)[C@H](CCCNC(=N)N)NC(=O)[C@H](CC(=O)O)NC(=O)[C@@H]2CCCN2C(=O)CN(C)C(=O)[C@H](Cc2ccc(-c3ccccc3)cc2)NC(=O)[C@H](Cc2ccc(-c3ccccc3)cc2)NC(=O)[C@H](Cc2ccccc2)NC(=O)CSC[C@@H](C(=O)NCC(N)=O)NC1=O [Example 3] ({CH2CO}-F[Bip][Bip][Sar]PDRVPVKLCG-NH2; thioether N-13), CC(C)C[C@@H]1NC(=O)[C@H](CCCNC(=N)N)NC(=O)[C@H](C(C)C)NC(=O)[C@@H]2CCCN2C(=O)[C@H](C(C)C)NC(=O)[C@H](CCCNC(=N)N)NC(=O)[C@H](CC(=O)O)NC(=O)[C@@H]2CCCN2C(=O)CN(C)C(=O)[C@H](Cc2ccc(-c3ccccc3)cc2)NC(=O)[C@H](Cc2ccc(-c3ccccc3)cc2)NC(=O)[C@H](Cc2ccc(O)cc2)NC(=O)CSC[C@@H](C(=O)NCC(N)=O)NC1=O [Example 4] ({CH2CO}-Y[Bip][Bip][Sar]PDRVPVRLCG-NH2; thioether N-13), CC(C)C[C@@H]1NC(=O)[C@H](CCCNC(=N)N)NC(=O)[C@H](C(C)C)NC(=O)[C@@H]2CCCN2C(=O)[C@H](C(C)C)NC(=O)[C@H](CCCNC(=N)N)NC(=O)[C@H](CC(=O)O)NC(=O)[C@@H]2CCCN2C(=O)CN(C)C(=O)[C@H](Cc2ccc(-c3ccccc3)cc2)NC(=O)[C@H](Cc2ccc(-c3ccccc3)cc2)NC(=O)[C@H](Cc2c[nH]c3ccccc23)NC(=O)CSC[C@@H](C(=O)NCC(N)=O)NC1=O [Example 5] ({CH2CO}-W[Bip][Bip][Sar]PDRVPVRLCG-NH2; thioether N-13), CC(C)C[C@@H]1NC(=O)[C@H](CCCNC(=N)N)NC(=O)[C@H](C(C)C)NC(=O)[C@@H]2CCCN2C(=O)[C@H](C(C)C)NC(=O)[C@H](CCCNC(=N)N)NC(=O)[C@H](CC(=O)O)NC(=O)[C@@H]2CCCN2C(=O)CN(C)C(=O)[C@H](Cc2ccc(-c3ccccc3)cc2)NC(=O)[C@H](Cc2ccc(-c3ccccc3)cc2)NC(=O)[C@H](CCCCN)NC(=O)CSC[C@@H](C(=O)NCC(N)=O)NC1=O [Example 6] ({CH2CO}-K[Bip][Bip][Sar]PDRVPVRLCG-NH2; thioether N-13), CC[C@H](C)C1NC(=O)CSC[C@@H](C(=O)NCC(N)=O)NC(=O)[C@H](CC(C)C)NC(=O)[C@H](CCCNC(=N)N)NC(=O)[C@H](C(C)C)NC(=O)[C@@H]2CCCN2C(=O)[C@H](C(C)C)NC(=O)[C@H](CCCNC(=N)N)NC(=O)[C@H](CC(=O)O)NC(=O)[C@@H]2CCCN2C(=O)CN(C)C(=O)[C@H](Cc2ccc(-c3ccccc3)cc2)NC(=O)[C@H](Cc2ccc(-c3ccccc3)cc2)NC1=O (stereo partly drawn) [Example 7] ({CH2CO}-[ξIle][Bip][Bip][Sar]PDRVPVRLCG-NH2; thioether N-13), CC(C)C[C@@H]1NC(=O)CSC[C@@H](C(=O)NCC(N)=O)NC(=O)[C@H](CC(C)C)NC(=O)[C@H](CCCNC(=N)N)NC(=O)[C@H](C(C)C)NC(=O)[C@@H]2CCCN2C(=O)[C@H](C(C)C)NC(=O)[C@H](CCCNC(=N)N)NC(=O)[C@H](CC(=O)O)NC(=O)[C@@H]2CCCN2C(=O)CN(C)C(=O)[C@H](Cc2ccc(-c3ccccc3)cc2)NC(=O)[C@H](Cc2ccc(-c3ccccc3)cc2)NC1=O [Example 8] ({CH2CO}-L[Bip][Bip][Sar]PDRVPVRLCG-NH2; thioether N-13), CC(C)C[C@@H]1NC(=O)[C@H](CCCNC(=N)N)NC(=O)[C@H](C(C)C)NC(=O)[C@@H]2CCCN2C(=O)[C@H](C(C)C)NC(=O)[C@H](CCCNC(=N)N)NC(=O)[C@H](CC(=O)O)NC(=O)[C@@H]2CCCN2C(=O)CN(C)C(=O)[C@H](Cc2ccc(-c3ccccc3)cc2)NC(=O)[C@H](Cc2ccc(-c3ccccc3)cc2)NC(=O)[C@H](C(C)C)NC(=O)CSC[C@@H](C(=O)NCC(N)=O)NC1=O [Example 9] ({CH2CO}-V[Bip][Bip][Sar]PDRVPVRLCG-NH2; thioether N-13), CC(C)C[C@@H]1NC(=O)[C@H](CCCNC(=N)N)NC(=O)[C@H](C(C)C)NC(=O)[C@@H]2CCCN2C(=O)[C@H](C(C)C)NC(=O)[C@H](CCCNC(=N)N)NC(=O)[C@H](CC(=O)O)NC(=O)[C@@H]2CCCN2C(=O)CN(C)C(=O)[C@H](Cc2ccc(-c3ccccc3)cc2)NC(=O)[C@H](Cc2ccc(-c3ccccc3)cc2)NC(=O)[C@H](CCc2ccncc2)NC(=O)CSC[C@@H](C(=O)NCC(N)=O)NC1=O [Example 10] ({CH2CO}-[h4Pal][Bip][Bip][Sar]PDRVPVRLCG-NH2; thioether N-13), CC(C)C[C@@H]1NC(=O)[C@H](CCCNC(=N)N)NC(=O)[C@H](C(C)C)NC(=O)[C@@H]2CCCN2C(=O)[C@H](C(C)C)NC(=O)[C@H](CCCNC(=N)N)NC(=O)[C@H](CC(=O)O)NC(=O)[C@@H]2CCCN2C(=O)CN(C)C(=O)[C@H](Cc2ccc(-c3ccccc3)cc2)NC(=O)[C@H](Cc2ccc(-c3ccccc3)cc2)NC(=O)[C@H](Cc2ccncc2)NC(=O)CSC[C@@H](C(=O)NCC(N)=O)NC1=O [Example 11] ({CH2CO}-[4Pal][Bip][Bip][Sar]PDRVPVRLCG-NH2; thioether N-13), CC(C)C[C@@H]1NC(=O)[C@H](CCCNC(=N)N)NC(=O)[C@H](C(C)C)NC(=O)[C@@H]2CCCN2C(=O)[C@H](C(C)C)NC(=O)[C@H](CCCNC(=N)N)NC(=O)[C@H](CC(=O)O)NC(=O)[C@@H]2CCCN2C(=O)CN(C)C(=O)[C@H](Cc2ccc(-c3ccccc3)cc2)NC(=O)[C@H](Cc2ccc(-c3ccccc3)cc2)NC(=O)[C@H](CCCc2ccccc2)NC(=O)CSC[C@@H](C(=O)NCC(N)=O)NC1=O [Example 12] ({CH2CO}-[hhPhe][Bip][Bip][Sar]PDRVPVRLCG-NH2; thioether N-13), CC(C)C[C@@H]1NC(=O)[C@H](CCCNC(=N)N)NC(=O)[C@H](C(C)C)NC(=O)[C@@H]2CCCN2C(=O)[C@H](Cc2ccc(O)cc2)NC(=O)[C@H](CCCNC(=N)N)NC(=O)[C@H](CC(=O)O)NC(=O)[C@@H]2CCCN2C(=O)CN(C)C(=O)[C@H](Cc2ccc(-c3ccccc3)cc2)NC(=O)[C@H](Cc2ccc(-c3ccccc3)cc2)NC(=O)[C@H](Cc2ccccc2)NC(=O)CSC[C@@H](C(=O)NCC(N)=O)NC1=O [Example 15] ({CH2CO}-F[Bip][Bip][Sar]PDRYPVRLCG-NH2; thioether N-13), CC(C)C[C@@H]1NC(=O)[C@H](CCCNC(=N)N)NC(=O)[C@H](C(C)C)NC(=O)CN(C)C(=O)[C@H](C(C)C)NC(=O)[C@H](CCCNC(=N)N)NC(=O)[C@H](CC(=O)O)NC(=O)[C@@H]2CCCN2C(=O)CN(C)C(=O)[C@H](Cc2ccc(-c3ccccc3)cc2)NC(=O)[C@H](Cc2ccc(-c3ccccc3)cc2)NC(=O)[C@H](Cc2ccccc2)NC(=O)CSC[C@@H](C(=O)NCC(N)=O)NC1=O [Example 16] ({CH2CO}-F[Bip][Bip][Sar]PDRV[Sar]VRLCG-NH2; thioether N-13), CC(C)C[C@@H]1NC(=O)[C@H](CCCNC(=N)N)NC(=O)[C@H](C(C)C)NC(=O)[C@H](C(C)C)NC(=O)[C@H](C(C)C)NC(=O)[C@H](CCCNC(=N)N)NC(=O)[C@H](CC(=O)O)NC(=O)[C@@H]2CCCN2C(=O)CN(C)C(=O)[C@H](Cc2ccc(-c3ccccc3)cc2)NC(=O)[C@H](Cc2ccc(-c3ccccc3)cc2)NC(=O)[C@H](Cc2ccccc2)NC(=O)CSC[C@@H](C(=O)NCC(N)=O)NC1=O [Example 17] ({CH2CO}-F[Bip][Bip][Sar]PDRVVVRLCG-NH2; thioether N-13), CC(C)C[C@@H]1NC(=O)[C@H](CCC(N)=O)NC(=O)[C@H](C(C)C)NC(=O)[C@@H]2CCCN2C(=O)[C@H](C(C)C)NC(=O)[C@H](CCCNC(=N)N)NC(=O)[C@H](CC(=O)O)NC(=O)[C@@H]2CCCN2C(=O)CN(C)C(=O)[C@H](Cc2ccc(-c3ccccc3)cc2)NC(=O)[C@H](Cc2ccc(-c3ccccc3)cc2)NC(=O)[C@H](Cc2ccccc2)NC(=O)CSC[C@@H](C(=O)NCC(N)=O)NC1=O [Example 18] ({CH2CO}-F[Bip][Bip][Sar]PDRVPVQLCG-NH2; thioether N-13), CC[C@H](C)[C@@H]1NC(=O)[C@H](C(C)C)NC(=O)[C@@H]2CCCN2C(=O)[C@H](C(C)C)NC(=O)[C@H](CCCNC(=N)N)NC(=O)[C@H](CC(=O)O)NC(=O)[C@H](Cc2ccc(O)cc2)NC(=O)CN(C)C(=O)[C@H](Cc2ccc(-c3ccccc3)cc2)NC(=O)[C@H](Cc2ccc(-c3ccccc3)cc2)NC(=O)[C@H](Cc2ccccc2)NC(=O)CSC[C@@H](C(=O)NCC(N)=O)NC(=O)[C@H](CC(C)C)NC1=O [Example 19] ({CH2CO}-F[Bip][Bip][Sar]YDRVPVILCG-NH2; thioether N-13), CC(C)C[C@@H]1NC(=O)[C@H](CCCNC(=N)N)NC(=O)[C@H](CC(C)C)NC(=O)[C@@H]2CCCN2C(=O)[C@H](C(C)C)NC(=O)[C@H](CCCNC(=N)N)NC(=O)[C@H](CC(=O)O)NC(=O)[C@@H]2CCCN2C(=O)CN(C)C(=O)[C@H](Cc2ccc(-c3ccccc3)cc2)NC(=O)[C@H](Cc2ccc(-c3ccccc3)cc2)NC(=O)[C@H](Cc2ccccc2)NC(=O)CSC[C@@H](C(=O)NCC(N)=O)NC1=O [Example 21] ({CH2CO}-F[Bip][Bip][Sar]PDRVPLRLCG-NH2; thioether N-13)
